Results deposited as PubChem BioAssay AID1159584 (Peter MacCallum Cancer Centre, 2016).
Aim: 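Genes whose loss is lethal only together with E-cadherin loss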 (primary screen). Cell system: human MCF10A breast epithelial cells, parental and CDH1-null. Reagents: siRNA against human genes. Measured: 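ATP luminescence (CellTiter-Glo) viability per line relative to mean mock wells over all plates, and the ratio of CDH1-null to parental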. Scale: CDH1-null / parental viability ratio: higher = CDH1-null cells survive relatively better than parental.
The whole screen tested about 18,000 reagents; below is an unselected part. Further read-outs or replicates are left out here. Not stated in the record: the amount of reagent, the time to read-out.

Gene | CDH1-null / parental viability ratio
TUSC3 | 0.98
NEMP1 | 0.83
SLC35G2 | 0.94
TPRX1 | 0.96
KRT24 | 1.11
VIPR1 | 0.66
MKNK2 | 0.83
KLK14 | 1.38
TIMM10B | 0.96
NPAS4 | 1.26
VPS28 | 1.06
MISP | 0.94
E2F4 | 0.91
SIAH1 | 1.12
KCTD7 | 1.2
COL10A1 | 1.32
ARFIP1 | 0.84
FBXO45 | 1.13
COQ10B | 0.96
HSPD1 | 0.94
PPP4R1 | 1.2
TMED8 | 0.77
DYDC2 | 0.93
TASP1 | 1.26
STAT1 | 0.93
KIFBP | 1.27
ABHD6 | 0.83
CACNA1A | 1.36
ART3 | 0.74
SNX11 | 1.03
OR6Q1 | 1.24
EGF | 0.94
GPR88 | 0.79
CHRNA5 | 1.14
LRRC59 | 1.24
ZNF691 | 0.94
NUDT10 | 0.58
H2AC7 | 0.93
SLFN13 | 1.08
CFAP70 | 1.1
LRFN5 | 1.03
ECPAS | 1.04
EPB41L4B | 0.97
MRPL16 | 0.94
EEF2 | 0.9
UBR5 | 1.19
NKIRAS2 | 1.12
LRIG1 | 1.18
BZW2 | 0.8
SLC12A5 | 1.22
SENP8 | 1.12
NEFM | 0.94
RIN3 | 1.03
MLLT10 | 0.98
ADCY5 | 0.96
GTF2H2 | 0.74
CCT7 | 1
ALDH3A1 | 0.93
SNRNP200 | 1.25
FOXK2 | 0.97
C1orf52 | 0.98
ICMT | 0.76
CNOT12 | 0.92
SULT2A1 | 0.91
TMPPE | 1.21
OR2B6 | 1.19
PC | 1.1
MTTP | 0.93
